Measured values taken from the NIST ThermoML archive (doi:10.1016/j.fluid.2010.02.038).
± gives the expanded uncertainty stated by the source.

Assay: relative permittivity at various frequencies (dimensionless); xn = mol fraction of the nth substance listed
Conditions: 303.15 K; 101 kPa; Liquid; Frequency=1 MHz; Capacitive measurement method at f=1 MHz; x2 = 0

In the case of `CC(=O)N(C)C` [N,N-dimethylethanamide] + NCCO, the relative permittivity is reported as 37.72 ± 0.23.
